# Experimental data: PubChem BioAssay AID1508597 (Cure First, 2020)
# Test: 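Genes whose silencing sensitises or protects ovarian cancer cells against rucaparib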 (primary screen)
# Cells: human ovarian carcinoma lines grown from tumours: OCI-P5x (papillary serous) and OCI-C5x (clear cell)
# Reagent: siRNA pool against human genes, 1.25 pmol siRNA per well
# Time to read-out: 72 h or 96 h, depending on the cell culture
# Challenge: rucaparib 20 µM (about IC30) or vehicle, present until read-out
# Read-out: 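ATP luminescence measured at 72 or 96 h according to the culture, then normalised and expressed as percent viability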
# Reading the numbers: viability, normalised: higher = more viable cells remaining
# Rule for the call: 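a well counts as a hit if its normalised viability is under 80 percent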
# Meaning of the calls: active = viability under 80%; inactive = viability 80% or more
# In all, the deposit lists about 2,100 reagents; below is a random part of them. 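Calls flag viability under 80% in either arm, not effects specific to rucaparib; the reference for percent is not stated.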 Entries without a mark were called inactive. Some reagents were tested in more than one well and are listed for each. Not stated in the record: the 100% reference.
target,rucaparib or vehicle,cell line,technical replicate,"viability, normalised (%)"
PCDHB3 (protocadherin beta 3),Rucaparib,OCI-C5x (clear cell),1,42.3 (active)
PCDHB3 (protocadherin beta 3),Rucaparib,OCI-C5x (clear cell),2,56.5 (active)
PCDHB3 (protocadherin beta 3),Rucaparib,OCI-C5x (clear cell),3,48 (active)
PCDHB3 (protocadherin beta 3),Rucaparib,OCI-P5x (serous),1,51.1 (active)
PCDHB3 (protocadherin beta 3),Rucaparib,OCI-P5x (serous),2,52.1 (active)
PCDHB3 (protocadherin beta 3),Rucaparib,OCI-P5x (serous),3,51.3 (active)
PCDHB3 (protocadherin beta 3),Vehicle,OCI-C5x (clear cell),1,38.9 (active)
PCDHB3 (protocadherin beta 3),Vehicle,OCI-C5x (clear cell),2,35.4 (active)
PCDHB3 (protocadherin beta 3),Vehicle,OCI-C5x (clear cell),3,41.4 (active)
PCDHB3 (protocadherin beta 3),Vehicle,OCI-P5x (serous),1,53.1 (active)
PCDHB3 (protocadherin beta 3),Vehicle,OCI-P5x (serous),2,62.6 (active)
PCDHB3 (protocadherin beta 3),Vehicle,OCI-P5x (serous),3,76 (active)
PDE4D (phosphodiesterase 4D),Rucaparib,OCI-C5x (clear cell),1,58 (active)
PDE4D (phosphodiesterase 4D),Rucaparib,OCI-C5x (clear cell),2,35.8 (active)
PDE4D (phosphodiesterase 4D),Rucaparib,OCI-C5x (clear cell),3,34.3 (active)
PDE4D (phosphodiesterase 4D),Rucaparib,OCI-P5x (serous),1,45 (active)
PDE4D (phosphodiesterase 4D),Rucaparib,OCI-P5x (serous),2,39.4 (active)
PDE4D (phosphodiesterase 4D),Rucaparib,OCI-P5x (serous),3,49.8 (active)
PDE4D (phosphodiesterase 4D),Vehicle,OCI-C5x (clear cell),1,32.2 (active)
PDE4D (phosphodiesterase 4D),Vehicle,OCI-C5x (clear cell),2,44.5 (active)
PDE4D (phosphodiesterase 4D),Vehicle,OCI-C5x (clear cell),3,30 (active)
PDE4D (phosphodiesterase 4D),Vehicle,OCI-P5x (serous),1,33.9 (active)
PDE4D (phosphodiesterase 4D),Vehicle,OCI-P5x (serous),2,54.5 (active)
PDE4D (phosphodiesterase 4D),Vehicle,OCI-P5x (serous),3,53.4 (active)
LPA (lipoprotein(a)),Rucaparib,OCI-C5x (clear cell),1,54.2 (active)
LPA (lipoprotein(a)),Rucaparib,OCI-C5x (clear cell),2,43.2 (active)
LPA (lipoprotein(a)),Rucaparib,OCI-C5x (clear cell),3,45.4 (active)
LPA (lipoprotein(a)),Rucaparib,OCI-P5x (serous),1,61 (active)
LPA (lipoprotein(a)),Rucaparib,OCI-P5x (serous),2,58.8 (active)
LPA (lipoprotein(a)),Rucaparib,OCI-P5x (serous),3,73.7 (active)
LPA (lipoprotein(a)),Vehicle,OCI-C5x (clear cell),1,61.4 (active)
LPA (lipoprotein(a)),Vehicle,OCI-C5x (clear cell),2,58.4 (active)
LPA (lipoprotein(a)),Vehicle,OCI-C5x (clear cell),3,58.4 (active)
LPA (lipoprotein(a)),Vehicle,OCI-P5x (serous),1,72.1 (active)
LPA (lipoprotein(a)),Vehicle,OCI-P5x (serous),2,64.3 (active)
LPA (lipoprotein(a)),Vehicle,OCI-P5x (serous),3,78.3 (active)
STK38L (serine/threonine kinase 38 like),Rucaparib,OCI-C5x (clear cell),1,92.9
STK38L (serine/threonine kinase 38 like),Rucaparib,OCI-C5x (clear cell),2,121
STK38L (serine/threonine kinase 38 like),Rucaparib,OCI-C5x (clear cell),3,92.9
STK38L (serine/threonine kinase 38 like),Rucaparib,OCI-P5x (serous),1,99.9
STK38L (serine/threonine kinase 38 like),Rucaparib,OCI-P5x (serous),2,99.6
STK38L (serine/threonine kinase 38 like),Rucaparib,OCI-P5x (serous),3,77.2 (active)
STK38L (serine/threonine kinase 38 like),Vehicle,OCI-C5x (clear cell),1,73 (active)
STK38L (serine/threonine kinase 38 like),Vehicle,OCI-C5x (clear cell),2,67.2 (active)
STK38L (serine/threonine kinase 38 like),Vehicle,OCI-C5x (clear cell),3,67.7 (active)
STK38L (serine/threonine kinase 38 like),Vehicle,OCI-P5x (serous),1,61.9 (active)
STK38L (serine/threonine kinase 38 like),Vehicle,OCI-P5x (serous),2,87
STK38L (serine/threonine kinase 38 like),Vehicle,OCI-P5x (serous),3,65.6 (active)
MMS19 (MMS19 cytosolic iron-sulfur assembly component),Rucaparib,OCI-C5x (clear cell),1,45.4 (active)
MMS19 (MMS19 cytosolic iron-sulfur assembly component),Rucaparib,OCI-C5x (clear cell),2,38.9 (active)
MMS19 (MMS19 cytosolic iron-sulfur assembly component),Rucaparib,OCI-C5x (clear cell),3,47.7 (active)
MMS19 (MMS19 cytosolic iron-sulfur assembly component),Rucaparib,OCI-P5x (serous),1,72.7 (active)
MMS19 (MMS19 cytosolic iron-sulfur assembly component),Rucaparib,OCI-P5x (serous),2,86
MMS19 (MMS19 cytosolic iron-sulfur assembly component),Rucaparib,OCI-P5x (serous),3,69.7 (active)
MMS19 (MMS19 cytosolic iron-sulfur assembly component),Vehicle,OCI-C5x (clear cell),1,31.7 (active)
MMS19 (MMS19 cytosolic iron-sulfur assembly component),Vehicle,OCI-C5x (clear cell),2,45.3 (active)
MMS19 (MMS19 cytosolic iron-sulfur assembly component),Vehicle,OCI-C5x (clear cell),3,42 (active)
MMS19 (MMS19 cytosolic iron-sulfur assembly component),Vehicle,OCI-P5x (serous),1,87
MMS19 (MMS19 cytosolic iron-sulfur assembly component),Vehicle,OCI-P5x (serous),2,74.4 (active)
MMS19 (MMS19 cytosolic iron-sulfur assembly component),Vehicle,OCI-P5x (serous),3,71.7 (active)
GSK3B (glycogen synthase kinase 3 beta),Rucaparib,OCI-C5x (clear cell),1,56.4 (active)
GSK3B (glycogen synthase kinase 3 beta),Rucaparib,OCI-C5x (clear cell),1,57.1 (active)
GSK3B (glycogen synthase kinase 3 beta),Rucaparib,OCI-C5x (clear cell),2,64.7 (active)
GSK3B (glycogen synthase kinase 3 beta),Rucaparib,OCI-C5x (clear cell),2,47 (active)
GSK3B (glycogen synthase kinase 3 beta),Rucaparib,OCI-C5x (clear cell),3,40.7 (active)
GSK3B (glycogen synthase kinase 3 beta),Rucaparib,OCI-C5x (clear cell),3,52.1 (active)
GSK3B (glycogen synthase kinase 3 beta),Rucaparib,OCI-P5x (serous),1,70.3 (active)
GSK3B (glycogen synthase kinase 3 beta),Rucaparib,OCI-P5x (serous),1,97
GSK3B (glycogen synthase kinase 3 beta),Rucaparib,OCI-P5x (serous),2,60.1 (active)
GSK3B (glycogen synthase kinase 3 beta),Rucaparib,OCI-P5x (serous),2,88.1
GSK3B (glycogen synthase kinase 3 beta),Rucaparib,OCI-P5x (serous),3,95.8
GSK3B (glycogen synthase kinase 3 beta),Rucaparib,OCI-P5x (serous),3,49.9 (active)
GSK3B (glycogen synthase kinase 3 beta),Vehicle,OCI-C5x (clear cell),1,53 (active)
GSK3B (glycogen synthase kinase 3 beta),Vehicle,OCI-C5x (clear cell),1,45.1 (active)
GSK3B (glycogen synthase kinase 3 beta),Vehicle,OCI-C5x (clear cell),2,55.5 (active)
GSK3B (glycogen synthase kinase 3 beta),Vehicle,OCI-C5x (clear cell),2,46.2 (active)
GSK3B (glycogen synthase kinase 3 beta),Vehicle,OCI-C5x (clear cell),3,62.6 (active)
GSK3B (glycogen synthase kinase 3 beta),Vehicle,OCI-C5x (clear cell),3,53.2 (active)
GSK3B (glycogen synthase kinase 3 beta),Vehicle,OCI-P5x (serous),1,88.7
GSK3B (glycogen synthase kinase 3 beta),Vehicle,OCI-P5x (serous),1,63.6 (active)
GSK3B (glycogen synthase kinase 3 beta),Vehicle,OCI-P5x (serous),2,40.4 (active)
GSK3B (glycogen synthase kinase 3 beta),Vehicle,OCI-P5x (serous),2,72.9 (active)
GSK3B (glycogen synthase kinase 3 beta),Vehicle,OCI-P5x (serous),3,89.5
GSK3B (glycogen synthase kinase 3 beta),Vehicle,OCI-P5x (serous),3,63.7 (active)
